From publication PMC7485968 (2020)

Target: T1, His-tagged ERG (UniProt P11308)
T1 sequence: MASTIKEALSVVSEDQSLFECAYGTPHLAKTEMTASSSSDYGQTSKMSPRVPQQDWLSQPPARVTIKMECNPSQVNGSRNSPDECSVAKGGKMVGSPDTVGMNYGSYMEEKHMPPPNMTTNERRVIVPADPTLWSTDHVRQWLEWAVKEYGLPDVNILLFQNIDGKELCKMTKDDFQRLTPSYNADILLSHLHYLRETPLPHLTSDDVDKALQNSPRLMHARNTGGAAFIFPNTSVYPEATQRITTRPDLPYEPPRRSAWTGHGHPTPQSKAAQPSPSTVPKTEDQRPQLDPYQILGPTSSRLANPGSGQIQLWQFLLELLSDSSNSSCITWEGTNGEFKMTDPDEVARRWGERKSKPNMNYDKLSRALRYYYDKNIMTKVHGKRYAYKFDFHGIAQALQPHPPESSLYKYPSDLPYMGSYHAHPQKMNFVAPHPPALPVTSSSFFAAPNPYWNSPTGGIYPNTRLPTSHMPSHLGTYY
Assay: pull-down; purified His-ERG conjugated to cobalt beads (His-tag isolation dynabeads) as bait; purified FLAG-GST-EWS proteins pulled down; FLAG immunoblot; both purified

- binding: binds
Substance: N-terminal degradation product arising from full-length EWS (domain or fragment)

No constants are given. Whether binding was seen depends on the method and setting. Binding can be weak; no strength is given. Tags and fused reporters may be left off the sequences shown.
